From PubChem BioAssay AID602346 (Broad Institute, 2012)
Out of some 340,000 compounds screened, about 1,200 (0.35%) were called active. The inconclusive results got no clear call from the source; some entries with a clear call stand among them for comparison. Rule as the data show it: active = inhibition above about 50% (passing the limit was not always enough); inconclusive = no clear call, values can overlap the other calls; inactive = below about 31%.

experiment: blockers of Vif multimerization in cells – imaging, HEK293T, single point, primary screen (AID 602346); conditions: Vif self-association by quenched fluorescence, 24 h, at 7.49 µM, active compounds read high

Structure (SMILES) | inhibition
O=C(Nc1nccs1)c1ccc2ccccc2n1 | inactive: -1.81%
CC(C)(C)OC(=O)C[C@@H]1C/C=C\C[C@@H](CC(=O)N(CCO)Cc2ccccc2)C(=O)N2CCC[C@H]2COC1=O | inconclusive: 27.1%
CCc1cccc(N(C(=O)c2csnn2)C(C(=O)NC(C)(C)C)c2ccncc2)c1 (centres undefined) | inconclusive: 45%
CC1CN(C2=NC(=O)/C(=C/c3ccncc3)S2)CC(C)O1 (centres undefined) | inconclusive: 32.2%
S=C(NC1CCCC1)NC1CCCC1 | active: 53%
CCOC(=O)c1c(NC(=O)CCC(=O)N2CCOCC2)sc2c1CC(C)(C)OC2 | active: 55.5%
Fc1ccc(-n2nnc(-c3ccccc3Br)n2)cc1 | inactive: 3.77%
O=C1CCCC2=C1C(c1ccccn1)Nc1ccc(C(=O)c3ccccc3)cc1N2 (centres undefined) | inactive: -3.68%
COc1cccc(C(=O)/C=C/Nc2cc(C)ccc2O)c1 | inactive: -9.14%
CC(C)(C)n1nc2c(c1NC(=O)c1ccc(C(F)(F)F)cc1)CS(=O)(=O)C2 | inconclusive: 42.2%
C=CC(=O)NCCCc1cc(C(C)(C)C)c(O)c(C(C)(C)C)c1 | inactive: -16.3%
O=C(COC(=O)c1ccc(Cl)c(S(=O)(=O)NCc2ccccc2)c1)NC1CC1 | active: 77.1%
COc1ccc(N2C(=O)CC(N3CCCC4CCCCC43)C2=O)cc1 (centres undefined) | inconclusive: 6.42%
COc1ccc(S(=O)(=O)N(C)CC(=O)Nc2ccc(C(N)=O)cc2)cc1OC | inconclusive: 32.7%
COC(=O)Cc1c[nH]c2ccc(OCC(O)CNC(C)C)cc12 (centres undefined) | inconclusive: 46%
CCCc1cc(=O)[nH]c(SCC(=O)NC(=O)c2ccccc2)n1 | inconclusive: 25%
O=S(=O)(Nc1ccc(Br)cc1)c1cccc(NS(=O)(=O)c2cccs2)c1 | inconclusive: 32.5%
Cc1ccc(S(=O)(=O)N(C)C)cc1NC(=O)COC(=O)C1CCN(S(=O)(=O)c2cccs2)CC1 | inconclusive: 33.4%
COc1ccc(-c2cc(C(=O)Nc3ccc(Cl)cc3Cl)c3ccccc3n2)cc1OC | inconclusive: 16.5%
Cc1ccc(S(=O)(=O)NN2CCCCCC2)cc1 | inconclusive: 41.7%
Cc1ccc(NC(=O)Cc2ccsc2)cc1S(=O)(=O)N1CCOCC1 | inconclusive: 47%
Cc1cccc(N(Cc2nnc3n2CCCCC3)C(=O)Nc2ccccc2)c1 | inconclusive: 40.5%
N#Cc1cccc(NC(=O)Cn2cnc(S(=O)(=O)N3CCc4ccccc43)c2)c1 | inconclusive: 19.5%

3 structures out of the list, sorted by SMILES length, largest number first.
Structure (SMILES) | inhibition
O=C(COC(=O)c1ccc(Cl)c(S(=O)(=O)NCc2ccccc2)c1)NC1CC1 | active: 77.1%
Cc1ccc(NC(=O)Cc2ccsc2)cc1S(=O)(=O)N1CCOCC1 | inconclusive: 47%
Fc1ccc(-n2nnc(-c3ccccc3Br)n2)cc1 | inactive: 3.77%

The list goes on:

Structure (SMILES) | inhibition
Cc1cc(C)n(C(C)CNC(=O)c2ccc3c(c2)OCO3)n1 (centres undefined) | inconclusive: 36.1%
Cc1ccc(/C=N/c2sc3c(c2C(N)=O)CCCC3)o1 | inconclusive: 23.6%
O=C(Nc1ccc(-c2nc3cc(Cl)ccc3o2)cc1)C1CCCO1 (centres undefined) | inactive: -3.78%
Cc1ccc(C(=O)CSC2=C(C#N)C(c3ccco3)C3=C(CCCC3=O)N2)cc1 (centres undefined) | inconclusive: 37.6%
O=C(Cc1csc(NC(=O)Nc2cccc(Cl)c2)n1)NCc1cccnc1 | inconclusive: 40.9%
Oc1ccc(/C=N/N2CCN(c3ccccn3)CC2)cc1 | inactive: -0.721%
c1ccc2c(N3CCCCC3)nc(N3CCCC3)nc2c1 | inactive: -14.6%
Cn1[nH]c(CSc2ccc(Cl)cc2)cc1=O | inconclusive: 9.03%
C=CCOn1c(=O)c(-c2ccc(OC)c(OC)c2)[n+]([O-])c2ccccc21 | inconclusive: 45.3%
CCOc1cccc2c1OC1(C)CC2NC(=O)N1c1ccc(OC)cc1 (centres undefined) | inconclusive: 23.3%
CC[C@@]1(c2ccccc2OC)ON(c2ccccc2C(F)(F)F)C1=O | inactive: -9.83%
COCCN(C(=O)COC(=O)Cc1coc2cc3c(cc12)CCC3)c1c(N)n(Cc2ccccc2)c(=O)[nH]c1=O | inactive: 7.31%
CC(C)C(=O)NC(c1ccccc1)c1cc([N+](=O)[O-])c2cccnc2c1O (centres undefined) | inactive: -1.77%
O=C1c2ccccc2C(=O)N1CC(O)COc1cccc2ccccc12 (centres undefined) | inconclusive: 24.6%
CCC(Sc1nc(C)cc(C)n1)C(=O)Nc1ccc(S(N)(=O)=O)cc1 (centres undefined) | inconclusive: 23%
CCC(C)(C)C1CCc2c(sc(NC(=O)c3ccccc3C(=O)O)c2C#N)C1 (centres undefined) | inactive: 9.05%
COc1cnc(-c2ccccn2)nc1Oc1cccc(Cl)c1 | inactive: 2.67%
O=C(NNC(=O)c1ccc[nH]1)Nc1cc(Cl)cc(Cl)c1 | active: 55.3%
O=S1(=O)N[C@@H](CC2CCCCC2)COc2cc(Br)ccc21 | inconclusive: 32.3%
O=[N+]([O-])c1cc(CN2CCN(c3ccccc3)CC2)c(O)c2ncccc12 | inactive: -8.28%
Cc1ccccc1CN(c1ccc(C(=O)NCCC2=CCCCC2)cc1)S(C)(=O)=O | inconclusive: 24.5%
COc1ccc(N(CC(=O)NC2CCCC2)C(=O)Cn2nnc(-c3ccc(OC)c(OC)c3)n2)c(OC)c1 | inconclusive: 47.8%
COc1cc(-c2noc(C)c2-c2ccc3[nH]ccc3c2)cc(OC)c1OC | inconclusive: 22.2%

Structure (SMILES) | inhibition
COc1ccc(/C(O)=C2/C(=O)C(=O)N(CCN(C)C)C2c2ccc(F)cc2)cc1Cl (centres undefined) | inconclusive: 39.9%
CC(=O)CCSc1nnc(-c2cccc(S(=O)(=O)N3CCOCC3)c2)o1 | inconclusive: 25.6%
CN(C)CCCN1c2ccc([N+](=O)[O-])cc2CCc2cc([N+](=O)[O-])ccc21 | inconclusive: 27.9%
O=C(N/N=C(\c1ccccc1)c1cccnc1)c1ccc(O)cc1 | inconclusive: 34.6%
Cc1sc2nc(-c3ccccn3)[nH]c(=O)c2c1-c1ccccc1 | inactive: -11.6%
Cc1ccc(S(=O)(=O)N2CCCCC2)cc1NC(=O)CSc1ncccn1 | active: 54.1%
O=C(NC(=O)N1CCN(c2ccccc2F)CC1)c1ccccc1 | active: 88.5%
CCOCc1cc(=O)[nH]c(SC)n1 | inactive: -0.599%
COc1ccc(OCC(=O)Nc2cc(S(=O)(=O)N3CCCC3)ccc2Cl)cc1 | inconclusive: 22%
COc1ccc(C(=O)NC(C)(C)C)cc1S(=O)(=O)N1CCCC1 | inconclusive: 41.7%
CCOC(=O)c1nn(-c2ccc(Cl)cc2)cc1O | inactive: -1.19%
COc1ccccc1NC(=O)c1ccc(NC(=O)c2ccco2)cc1 | inactive: 6.3%
CCOCC(=O)N1CCN(Cc2ccc3c(c2)OCO3)CC1 | inactive: -2.1%
CCOc1ccc(NC(=O)CSc2nc3ccccc3nc2N2CC(C)OC(C)C2)cc1 (centres undefined) | inconclusive: 39.7%
CCc1cc2c(Sc3nc4ccccc4s3)ncnc2s1 | active: 89%
COc1ccc(C)cc1NC(=O)C1CCCN1S(=O)(=O)c1ccccc1F (centres undefined) | inconclusive: 37.3%
CCOC(=O)CNC(=S)N(CCCN1CCCCC1)Cc1cccs1 | inconclusive: 32.1%
CN1CCN(c2ccccc2NC(=O)c2ccc(-c3ccc(Cl)cc3Cl)o2)CC1 | inconclusive: 31.3%
CCCCOc1ccc(C2/C(=C(/O)c3ccc4c(c3)CC(C)O4)C(=O)C(=O)N2CCCN2CCOCC2)cc1OC (centres undefined) | inconclusive: 26.2%
N#Cc1cccc(C(=O)Nc2ccc(S(=O)(=O)Nc3nccs3)cc2)c1 | active: 65.9%
Cc1ccc2nc(-c3ccc(F)cc3)c(Cc3cccc(Cl)c3)n2c1 | inactive: 13.5%
O=C(COc1ccccc1[N+](=O)[O-])N(Cc1ccccc1)c1ccccn1 | inactive: 0.337%
COc1ccc(-c2nc(CS(=O)(=O)CC(=O)NCCc3ccccc3)c(C)o2)cc1 | active: 56.4%

Structure (SMILES) | inhibition
COc1cc2c(cc1NC(=O)CN1CCN(S(=O)(=O)c3ccccc3F)CC1)oc1ccccc12 | inconclusive: 40.9%
CCn1c(CCC(=O)Nc2cc(F)ccc2C)nc2cc(S(=O)(=O)N(C)C)ccc21 | inconclusive: 19.2%
Clc1ccccc1Cn1nnc2ccccc21 | inconclusive: 35.6%
O=C(O)/C=C/C(=O)Nc1ccc(SC(F)(F)F)cc1 | inconclusive: 24.2%
O=C(c1ccco1)c1nnn(Cc2ccccc2)c1-c1ccccc1 | inactive: -2.79%
CCC(CNc1cc(OC)cc2cccnc12)NC1CCCCC1 (centres undefined) | inactive: 3.84%
CC1Cc2ccccc2N1C(=O)Cn1cnc2ccccc21 (centres undefined) | inconclusive: 33.6%
CN1CCN(c2ccc(-c3cccc(NC(=O)COc4ccccc4)c3)nn2)CC1 | inactive: -13.5%
COc1ccc(S(=O)(=O)N2CCCC(C(=O)NCCC3=CCCCC3)C2)cc1 (centres undefined) | inactive: -3.17%
COc1ccc([N+](=O)[O-])cc1NC(=O)CC1SC(=Nc2cccc(C)c2C)N(/N=C/c2cccc(OC)c2OC)C1=O (centres undefined) | inconclusive: 37.5%
O=C(Nc1ccc(NC(=O)C2CC2)nc1)c1cccc(F)c1 | inconclusive: 40.6%
Cn1cccc1-c1cc(C(=O)N/N=C/c2ccc([N+](=O)[O-])cc2)[nH]n1 | active: 69.8%
COc1ccc(NC(=O)Cn2ncc(Cl)c(Cl)c2=O)cc1S(=O)(=O)N1CCOCC1 | active: 59%
O=C(NCCCN1CCOCC1)C(=O)N/N=C/c1ccccc1 | inconclusive: 32.1%
COc1ccc(/C=C/C(=O)Nc2ccc(C(C)=O)cc2)cc1S(=O)(=O)N1CCOCC1 | inactive: 0.889%
CC(=O)Nc1ccc(S(=O)(=O)NCCC(=O)N2CCc3ccccc32)cc1 | inconclusive: 26.2%
CC(=O)Nc1ccc(NC(=O)CCn2nnc3ccccc32)cc1 | inactive: 3.98%
Cc1c(CCCl)c(Cl)n2c(nc3ccccc32)c1C#N | active: 60.8%
CC(=O)N1CCC(=NNC(=O)c2cc3ccccc3cc2O)CC1 | active: 50.5%
Cn1c(-c2cc3ccc(OC(=O)C(C)(C)C)cc3oc2=O)nc2ccccc21 | inactive: -9.14%
